This test deals with T1, myc-tagged porcine BCL-G (porcine) (UniProt F1SQ67).
T1 sequence: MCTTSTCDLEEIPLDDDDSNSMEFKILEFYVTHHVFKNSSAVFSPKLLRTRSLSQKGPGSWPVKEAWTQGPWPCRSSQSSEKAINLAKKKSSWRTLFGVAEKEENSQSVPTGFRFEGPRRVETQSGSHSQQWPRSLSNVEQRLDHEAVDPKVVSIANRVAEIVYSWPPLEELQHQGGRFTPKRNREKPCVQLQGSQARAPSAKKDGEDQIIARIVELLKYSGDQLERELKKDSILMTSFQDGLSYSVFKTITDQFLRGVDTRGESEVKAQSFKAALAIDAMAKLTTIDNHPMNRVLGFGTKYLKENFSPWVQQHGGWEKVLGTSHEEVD
Nature of the test: co-IP; Pierce Mammalian c-Myc Tag IP/Co-IP Kit; SUVEC cells co-transfected, lysed about 36 hours later in M-PER; lysate incubated overnight at 4°C with anti-c-Myc agarose; washed with TBS plus 0.05% Tween-20; blot with anti-HA tag or anti-myc tag antibody.

Data on one substance can be found in article PMC5325336.

These are yes or no findings as the source states them, for the method shown. In cells and extracts the contact can be indirect. Binding calls can cover weak binding; strength is not graded here. Sequences can lack the tags named with a protein.

Regarding HA-tagged porcine JAB1, the binding result is on record as “binds”.
